Test system: vascular smooth muscle cells
Experiment: 24 hour 3H-thymidine DNA synthesis inhibition assay compared with 24 hour 3H-leucine protein inhibition assay
Assay type: cell-based
Conditions: Example 8, Figs. 10A-10C
Method: The ability of various therapeutic agents to inhibit DNA synthesis and protein synthesis in vascular smooth muscle cells was tested. ^3H-leucine and ^3H-thymidine uptake and cytotoxicity assays were conducted in accordance with the following protocols.
3H-leucine uptake: Vascular smooth muscle cells at 40,000 cells/ml were seeded in sterile 24 well plates at 1ml/well. The plates were incubated overnight at 37°C, 5% CO2, 95% air in a humidified atmosphere (saturation). Log dilutions of the therapeutic agent of interest were incubated with the vascular smooth muscle cells for 5 minutes or 24 hours. […] Vials were counted on a Beckman LS2800 Liquid Scintillation Counter interfaced with Beckman "Data Capture" software for conversion to a Lotus 1-2-3® file and analysis using Lotus 1-2-3®.
^3H-thymidine uptake: Vascular smooth muscle cells were incubated in complete media with 5% FBS (Gibco) overnight at 37°C in a humidified, 5% CO2 environment in sterile 24 well plates. […] The cells were visually scored for viability and cell number. […] Vials were counted on a Beckman LS2800 Liquid Scintillation Counter interfaced with Beckman "Data Capture" software for conversion to a Lotus 1-2-3° file and analysis using Lotus 1-2-30®. […]

## CN[C@@H]1C[C@H]2O[C@@](C)([C@@H]1OC)n1c3ccccc3c3c4c(c5c6ccccc6n2c5c31)C(=O)NC4 [staurosporin]
  protein synthesis inhibition and cytotoxicity at concentrations where significant DNA synthesis inhibition occurs: minimal protein synthesis inhibition and cytotoxicity

Reference: patent EP1350523B1 (priority 1992, dated 1994)
